Reference: publication PMC6237925
These are yes or no findings as the source states them, for the method shown. Binding seen in cells or lysates may run through a third protein. Some binding calls cover weakened binding; strength is not graded here.

Chains of the proteins cited; added tags and fusions are not shown. Residues count along the entry.
UniProt O60568, residues 25-738: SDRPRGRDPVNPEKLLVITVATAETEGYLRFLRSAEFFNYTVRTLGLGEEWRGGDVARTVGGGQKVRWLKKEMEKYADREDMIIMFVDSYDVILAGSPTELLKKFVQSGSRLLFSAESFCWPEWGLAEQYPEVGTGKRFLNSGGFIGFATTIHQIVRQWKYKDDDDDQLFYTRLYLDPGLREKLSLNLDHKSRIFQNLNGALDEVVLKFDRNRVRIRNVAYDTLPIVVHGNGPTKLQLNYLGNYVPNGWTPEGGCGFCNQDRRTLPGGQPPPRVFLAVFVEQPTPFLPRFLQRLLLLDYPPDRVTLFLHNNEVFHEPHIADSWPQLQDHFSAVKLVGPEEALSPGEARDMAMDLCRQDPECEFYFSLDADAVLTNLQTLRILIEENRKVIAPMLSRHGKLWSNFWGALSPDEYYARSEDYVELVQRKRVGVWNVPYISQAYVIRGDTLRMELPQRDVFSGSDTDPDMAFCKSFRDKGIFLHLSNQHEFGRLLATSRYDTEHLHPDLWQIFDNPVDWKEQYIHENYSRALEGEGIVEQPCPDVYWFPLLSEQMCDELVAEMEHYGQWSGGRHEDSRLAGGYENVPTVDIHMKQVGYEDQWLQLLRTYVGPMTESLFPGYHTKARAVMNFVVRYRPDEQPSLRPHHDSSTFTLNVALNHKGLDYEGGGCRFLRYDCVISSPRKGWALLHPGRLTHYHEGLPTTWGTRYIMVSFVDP
UniProt P40763: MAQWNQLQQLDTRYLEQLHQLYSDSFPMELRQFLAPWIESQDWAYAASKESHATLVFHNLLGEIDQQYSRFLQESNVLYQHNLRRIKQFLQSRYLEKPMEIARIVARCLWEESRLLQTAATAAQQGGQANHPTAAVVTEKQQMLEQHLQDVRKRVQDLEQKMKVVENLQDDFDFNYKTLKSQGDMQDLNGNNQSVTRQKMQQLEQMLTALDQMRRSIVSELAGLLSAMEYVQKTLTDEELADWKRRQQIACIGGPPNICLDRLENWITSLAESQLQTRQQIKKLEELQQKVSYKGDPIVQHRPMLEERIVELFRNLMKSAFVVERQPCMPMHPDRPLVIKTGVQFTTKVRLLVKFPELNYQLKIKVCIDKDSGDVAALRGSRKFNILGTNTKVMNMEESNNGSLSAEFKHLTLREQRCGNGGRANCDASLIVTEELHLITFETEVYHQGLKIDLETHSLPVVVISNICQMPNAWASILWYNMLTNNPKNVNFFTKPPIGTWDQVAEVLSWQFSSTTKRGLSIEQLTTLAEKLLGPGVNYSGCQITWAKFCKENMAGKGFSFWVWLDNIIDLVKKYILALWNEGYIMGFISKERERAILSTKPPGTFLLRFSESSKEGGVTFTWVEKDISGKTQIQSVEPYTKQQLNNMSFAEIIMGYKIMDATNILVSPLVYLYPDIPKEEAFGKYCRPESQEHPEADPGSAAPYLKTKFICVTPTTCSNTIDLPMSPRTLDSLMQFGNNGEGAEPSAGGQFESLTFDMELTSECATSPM

Legend:
[1] = target: Procollagen-lysine, 2-oxoglutarate 5-dioxygenase (PLOD3) (human (endogenous in R-H460)) (UniProt O60568); experiment: proximity ligation; in situ PLA (Duolink) on paraformaldehyde-fixed R-H460 cells permeabilised with 0.2% Triton X-100; mouse anti-PLOD3 with rabbit anti-STAT3 (pS-STAT3 and pY-STAT3 staining by the legend); confocal microscopy
[2] = target: Procollagen-lysine, 2-oxoglutarate 5-dioxygenase (PLOD3) (human (endogenous in R-H460)) (UniProt O60568); experiment: co-IP; R-H460 cells transfected 48 h, lysed in NP-40 buffer (50 mM Tris-HCl pH 8, 150 mM NaCl, 1% NP-40); antibodies 1:100 at 4 °C, protein A-sepharose, immunoblotting

binding [1] | binding [2] | Substance
binds | – | STAT3 phosphorylated at Ser727 (pS-STAT3) (from UniProt P40763 1-770)
binds | binds | Signal transducer and activator of transcription 3 (STAT3) (from UniProt P40763 1-770)
